Laboratory results as given in publication PMC11252128.
No constants are given. Whether binding was seen depends on the method and setting. Binding seen in cells or lysates may run through a third protein. Binding calls can cover weak binding; strength is not graded here. Sequences can lack the tags named with a protein.

Tests used:
[1] = target: T1, OsERS2-Myc (rice (Oryza sativa L.)) (UniProt Q0DKM0); experiment: pull-down; semi-in vitro pull-down: receptor-Myc immunoprecipitated with anti-c-Myc affinity gel from receptor-Myc/mhz3 plants, equal amounts added to homogenates of WT, mhz3 and MHZ3-OE#22 seedlings, 1 h at 4 °C; blot anti-OsCTR2; only the target purified
T1 sequence: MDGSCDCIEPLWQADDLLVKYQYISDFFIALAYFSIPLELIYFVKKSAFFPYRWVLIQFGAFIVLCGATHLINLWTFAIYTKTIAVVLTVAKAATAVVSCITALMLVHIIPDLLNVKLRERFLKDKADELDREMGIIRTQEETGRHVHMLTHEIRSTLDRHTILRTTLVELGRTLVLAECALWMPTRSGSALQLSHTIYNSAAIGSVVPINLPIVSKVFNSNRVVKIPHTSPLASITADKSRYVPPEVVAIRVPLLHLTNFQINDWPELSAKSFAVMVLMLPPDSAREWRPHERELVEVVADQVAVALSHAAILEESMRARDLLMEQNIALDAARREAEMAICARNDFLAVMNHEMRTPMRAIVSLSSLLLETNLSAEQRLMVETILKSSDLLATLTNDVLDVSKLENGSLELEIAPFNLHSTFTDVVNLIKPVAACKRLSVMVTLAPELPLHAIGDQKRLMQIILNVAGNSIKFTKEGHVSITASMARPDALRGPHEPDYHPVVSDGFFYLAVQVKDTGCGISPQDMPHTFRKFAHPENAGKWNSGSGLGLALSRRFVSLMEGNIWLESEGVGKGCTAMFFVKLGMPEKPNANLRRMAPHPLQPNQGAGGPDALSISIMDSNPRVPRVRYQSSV

[2] = target: T2, OsETR2-Myc (rice (Oryza sativa L.)) (UniProt Q7XX84); experiment: as above
T2 sequence: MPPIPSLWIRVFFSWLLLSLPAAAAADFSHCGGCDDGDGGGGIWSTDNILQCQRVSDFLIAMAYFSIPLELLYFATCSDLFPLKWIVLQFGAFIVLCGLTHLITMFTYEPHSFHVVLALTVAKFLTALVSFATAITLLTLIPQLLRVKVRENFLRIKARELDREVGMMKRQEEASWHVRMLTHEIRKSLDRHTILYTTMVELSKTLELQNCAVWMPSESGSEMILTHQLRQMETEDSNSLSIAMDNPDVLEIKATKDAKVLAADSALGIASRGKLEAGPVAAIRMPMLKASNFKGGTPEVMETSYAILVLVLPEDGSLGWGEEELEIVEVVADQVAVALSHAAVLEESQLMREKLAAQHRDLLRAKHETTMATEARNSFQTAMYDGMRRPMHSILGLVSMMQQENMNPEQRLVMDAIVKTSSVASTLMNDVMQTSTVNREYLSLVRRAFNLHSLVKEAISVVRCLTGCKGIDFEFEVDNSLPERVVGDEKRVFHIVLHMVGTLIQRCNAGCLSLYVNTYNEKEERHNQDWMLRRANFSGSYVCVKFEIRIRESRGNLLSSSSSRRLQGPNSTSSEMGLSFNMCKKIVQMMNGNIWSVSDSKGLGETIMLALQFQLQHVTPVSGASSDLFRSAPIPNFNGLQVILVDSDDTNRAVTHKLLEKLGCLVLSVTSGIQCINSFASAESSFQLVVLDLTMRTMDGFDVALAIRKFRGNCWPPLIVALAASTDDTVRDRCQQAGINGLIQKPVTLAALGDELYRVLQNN

[3] = target: T1, OsERS2-Myc (rice (Oryza sativa L.)); experiment: co-IP; stable transgenic rice seedlings (receptor-Myc in WT or mhz3 background), 2 days in the dark, with or without 1 h of 10 μL/L ethylene; total proteins immunoprecipitated with anti-c-Myc affinity gel; blots anti-c-Myc, anti-OsCTR2, anti-MHZ3
[4] = target: T2, OsETR2-Myc (rice (Oryza sativa L.)); experiment: as above
[5] = target: T3, OsEIN2-GFP (rice (Oryza sativa L.)) (UniProt Q0D8I9); experiment: co-IP; stable transgenic rice seedlings expressing OsEIN2-GFP, 2 days in the dark, air or 1 h of 10 μL/L ethylene; the methods name anti-c-Myc affinity gel or GFP-Trap_A beads for stable plants
T3 sequence: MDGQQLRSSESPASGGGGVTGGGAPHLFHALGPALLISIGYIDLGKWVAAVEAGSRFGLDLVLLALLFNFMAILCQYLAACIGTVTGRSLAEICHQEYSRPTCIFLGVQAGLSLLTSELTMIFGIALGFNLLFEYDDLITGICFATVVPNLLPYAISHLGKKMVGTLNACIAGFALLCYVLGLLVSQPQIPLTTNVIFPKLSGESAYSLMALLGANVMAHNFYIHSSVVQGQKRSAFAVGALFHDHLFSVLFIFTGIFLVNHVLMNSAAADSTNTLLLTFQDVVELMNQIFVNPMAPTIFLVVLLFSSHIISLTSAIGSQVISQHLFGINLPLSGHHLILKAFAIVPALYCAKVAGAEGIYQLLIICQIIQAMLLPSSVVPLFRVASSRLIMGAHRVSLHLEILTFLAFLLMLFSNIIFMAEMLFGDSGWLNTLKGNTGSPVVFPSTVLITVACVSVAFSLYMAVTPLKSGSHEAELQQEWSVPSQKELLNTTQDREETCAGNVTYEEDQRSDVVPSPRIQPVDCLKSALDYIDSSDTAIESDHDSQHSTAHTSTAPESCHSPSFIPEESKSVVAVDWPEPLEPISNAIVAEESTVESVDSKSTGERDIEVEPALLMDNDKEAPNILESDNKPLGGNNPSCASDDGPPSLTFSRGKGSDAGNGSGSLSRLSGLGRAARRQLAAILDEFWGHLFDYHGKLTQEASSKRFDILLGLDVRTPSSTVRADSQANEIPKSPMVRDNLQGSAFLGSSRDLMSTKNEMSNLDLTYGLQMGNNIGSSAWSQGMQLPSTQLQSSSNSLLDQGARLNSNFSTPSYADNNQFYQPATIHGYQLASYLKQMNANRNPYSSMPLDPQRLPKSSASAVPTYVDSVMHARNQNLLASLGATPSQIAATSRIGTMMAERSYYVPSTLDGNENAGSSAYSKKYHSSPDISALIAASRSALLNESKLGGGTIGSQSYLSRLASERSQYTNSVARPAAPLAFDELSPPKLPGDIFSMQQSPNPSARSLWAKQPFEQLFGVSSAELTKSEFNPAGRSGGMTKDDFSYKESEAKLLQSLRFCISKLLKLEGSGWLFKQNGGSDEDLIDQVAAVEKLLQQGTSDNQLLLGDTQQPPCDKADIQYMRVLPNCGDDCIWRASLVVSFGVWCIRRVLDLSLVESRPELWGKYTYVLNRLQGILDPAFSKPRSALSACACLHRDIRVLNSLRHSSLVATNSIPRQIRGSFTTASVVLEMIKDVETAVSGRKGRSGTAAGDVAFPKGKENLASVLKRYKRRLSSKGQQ

Measured: binding

OsCTR2 (rice (endogenous in rice seedlings)) (enzyme)
binds: [1] | [2] | [3] | [4]

MHZ3 (rice (endogenous in rice seedlings))
binds: [3] | [4] | [5]
